Experimental data from the supplement of paper PMC4604168 (melanoma cell lines).
This is one part of the list. Many values rest on one well or one pass, so single values are uncertain.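 Cells were imaged in 1,536-well plates, and nuclei stained with an antibody against cleaved PARP were counted against all DNA-stained nuclei to give the apoptosis fraction. Screening doses were chosen to leave most cells alive, and resting and induced cleaved-PARP levels differ strongly between cell lines.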

tested on: IST-MEL1; experiment: cleaved PARP positive nuclei fraction relative to DMSO control; melanoma cells; higher = more apoptosis; settings: library dose: low library concentration; 72 h

| Structure (SMILES) | cleaved PARP positive nuclei fraction [%] |
| --- | --- |
| C=C(c1ccc(C(=O)O)cc1)c1cc2c(cc1C)C(C)(C)CCC2(C)C [Bexarotene] + COC(=O)c1sccc1S(=O)(=O)Nc1ccc(Nc2ccccc2)cc1OC [GSK0660] (first compound 2 µM, partner dose 1 µM) | 134 |
| Nc1nc(F)nc2c1ncn2[C@@H]1O[C@H](CO)[C@@H](O)[C@@H]1O [fludarabine] + COc1ccc2c(c1)CCC1C2CCC2(C)C(NCCCCCCN3C(=O)C=CC3=O)CCC12 [U73122] (first compound 0.2 µM, partner dose 0.4 µM) | 103 |
| O=C(O)[C@@H]1[O][Sb](=[O])([O][Sb]2(=[O])[O][C@H]([C@H](O)CO)[C@H](O)[C@H](C(=O)O)[O]2)[O][C@H]([C@H](O)CO)[C@@H]1O (some centres not stated) [stibogluconate] + O=C(O)C(=O)Nc1sc2c(c1C(=O)O)CCNC2 [TCS401] (first compound 2 µM, partner dose 1.66667 µM) | 82.2 |
| C=C(c1ccc(C(=O)O)cc1)c1cc2c(cc1C)C(C)(C)CCC2(C)C [Bexarotene] + Cc1cc([N+](=O)[O-])ccc1NS(=O)(=O)c1cc(Cl)ccc1Cl [FH535] (first compound 2 µM, partner dose 1 µM) | 64.1 |
| C=C(c1ccc(C(=O)O)cc1)c1cc2c(cc1C)C(C)(C)CCC2(C)C [Bexarotene] + COc1ccc(COc2ccc(Cc3cnc(N)nc3N)cc2OC)cc1 [GW2580] (first compound 2 µM, partner dose 1 µM) | 112 |
| Nc1nc(F)nc2c1ncn2[C@@H]1O[C@H](CO)[C@@H](O)[C@@H]1O [fludarabine] + O=C(Nc1ccccc1)c1cc([N+](=O)[O-])ccc1Cl [GW9662] (first compound 0.2 µM, partner dose 2 µM) | 86.8 |
| CC(C)C[C@H](NC(=O)[C@H](Cc1ccccc1)NC(=O)c1cnccn1)B(O)O [Bortezomib] + COC(=O)c1sccc1S(=O)(=O)Nc1ccc(Nc2ccccc2)cc1OC [GSK0660] (first compound 0.001 µM, partner dose 1 µM) | 117 |
| CN1CCN(c2ccc3nc(-c4c(N)c5c(F)cccc5[nH]c4=O)[nH]c3c2)CC1 [Dovitinib] + COc1ccc(COc2ccc(Cc3cnc(N)nc3N)cc2OC)cc1 [GW2580] (first compound 0.1 µM, partner dose 1 µM) | 102 |
| Cn1c(=O)n(-c2ccc(C(C)(C)C#N)cc2)c2c3cc(-c4cnc5ccccc5c4)ccc3ncc21 + Cc1cc([N+](=O)[O-])ccc1NS(=O)(=O)c1cc(Cl)ccc1Cl [FH535] (first compound 0.004 µM, partner dose 1 µM) | 157 |
| CCCS(=O)(=O)Nc1ccc(F)c(C(=O)c2c[nH]c3ncc(Cl)cc23)c1F + Oc1nc(-c2ccc(C(F)(F)F)cc2)nc2c1CSCC2 [XAV939] (first compound 0.08 µM, partner dose 2 µM) | 249 |
| Nc1nc(F)nc2c1ncn2[C@@H]1O[C@H](CO)[C@@H](O)[C@@H]1O [fludarabine] + COc1ccc(-c2ccc3c(N4CCOCC4)nc(N4C[C@@H](C)O[C@@H](C)C4)nc3n2)cc1CO [KU0063794] (first compound 0.2 µM, partner dose 0.02 µM) | 124 |
| CS(=O)(=O)CCNCc1ccc(-c2ccc3ncnc(Nc4ccc(OCc5cccc(F)c5)c(Cl)c4)c3c2)o1 [lapatinib] + O=C(Nc1ccccc1)c1cc([N+](=O)[O-])ccc1Cl [GW9662] (first compound 0.8 µM, partner dose 2 µM) | 168 |
| C=C(c1ccc(C(=O)O)cc1)c1cc2c(cc1C)C(C)(C)CCC2(C)C [Bexarotene] + CCc1ccc(CCOc2ccc(CC3SC(=O)NC3=O)cc2)nc1 [pioglitazone] (first compound 2 µM, partner dose 2 µM) | 63.9 |
| C=C(c1ccc(C(=O)O)cc1)c1cc2c(cc1C)C(C)(C)CCC2(C)C [Bexarotene] + c1cc(-c2cnn3cc(-c4ccc(OCCN5CCCCC5)cc4)cnc23)ccn1 [Dorsomorphin] (first compound 2 µM, partner dose 0.4 µM) | 134 |
| CS(=O)(=O)CCNCc1ccc(-c2ccc3ncnc(Nc4ccc(OCc5cccc(F)c5)c(Cl)c4)c3c2)o1 [lapatinib] + COc1cc(N2CCC(N3CCN(C)CC3)CC2)ccc1Nc1ncc(Cl)c(Nc2ccccc2S(=O)(=O)C(C)C)n1 [NVP-TAE684] (first compound 0.8 µM, partner dose 0.08 µM) | 113 |
| CNC(=O)c1cc(Oc2ccc(NC(=O)Nc3ccc(Cl)c(C(F)(F)F)c3)cc2)ccn1 [sorafenib] + CCN(CC)CCCCNc1ncc2cc(-c3cc(OC)cc(OC)c3)c(NC(=O)NC(C)(C)C)nc2n1 [PD173074] (first compound 0.4 µM, partner dose 0.1 µM) | 112 |
| CO[C@H]1C[C@@H]2CC[C@@H](C)[C@@](O)(O2)C(=O)C(=O)N2CCCC[C@H]2C(=O)O[C@H]([C@H](C)C[C@@H]2CC[C@@H](OCCO)[C@H](OC)C2)CC(=O)[C@H](C)/C=C(\C)[C@@H](O)[C@@H](OC)C(=O)[C@H](C)C[C@H](C)/C=C/C=C/C=C/1C [everolimus] + O=C1NC(=O)/C(=C/c2ccc(-c3ccc(F)cc3O)o2)S1 [AS252424] (first compound 0.02 µM, partner dose 1 µM) | 189 |

A section taken from the entries so far, as a working copy:

| Structure (SMILES) | cleaved PARP positive nuclei fraction [%] |
| --- | --- |
| CNC(=O)c1cc(Oc2ccc(NC(=O)Nc3ccc(Cl)c(C(F)(F)F)c3)cc2)ccn1 [sorafenib] + CCN(CC)CCCCNc1ncc2cc(-c3cc(OC)cc(OC)c3)c(NC(=O)NC(C)(C)C)nc2n1 [PD173074] (first compound 0.4 µM, partner dose 0.1 µM) | 112 |
| CO[C@H]1C[C@@H]2CC[C@@H](C)[C@@](O)(O2)C(=O)C(=O)N2CCCC[C@H]2C(=O)O[C@H]([C@H](C)C[C@@H]2CC[C@@H](OCCO)[C@H](OC)C2)CC(=O)[C@H](C)/C=C(\C)[C@@H](O)[C@@H](OC)C(=O)[C@H](C)C[C@H](C)/C=C/C=C/C=C/1C [everolimus] + O=C1NC(=O)/C(=C/c2ccc(-c3ccc(F)cc3O)o2)S1 [AS252424] (first compound 0.02 µM, partner dose 1 µM) | 189 |
